# Reference: patent US12194024B2, “Pharmaceutical composition of MDM2 inhibitor and use thereof for preventing and/or treating disease” (ASCENTAGE PHARMA (SUZHOU) CO., LTD., priority 2019, dated 2025)
# At least one compound was matched to its structure with a doubt left.
# Tests used:
# NCI-H226 = experiment: CTG cell proliferation experiment, NSCLC; assay type: cell-based; conditions: NCI-H226, KRAS and STK11 wild-type
# NCI-H292 = experiment: CTG cell proliferation experiment, NSCLC; assay type: cell-based; conditions: NCI-H292, KRAS and STK11 wild-type
# MOLM-13 = experiment: PI staining cell cycle analysis by flow cytometry; assay type: cell-based, human; conditions: 0.01-1 μM, 48 hours
# OCI-AML-3 = experiment: PI staining cell cycle analysis by flow cytometry; assay type: cell-based, human; conditions: 0.01-1 μM, 48 hours
# MV-4-11 = experiment: PI staining cell cycle analysis by flow cytometry; assay type: cell-based, human; conditions: 0.01-1 μM, 48 hours
# [1] = system: human MOLM-13 (AML) xenograft tumor; experiment: Systemic MOLM-13 AML mouse xenograft model; assay type: in vivo, NOD SCID mice; conditions: 20 mg/kg, oral, every other day for 21 days
# From the text: The comparison among three or more groups uses one-way ANOVA. If the F value has a significant difference, multiple comparisons should be carried out after the ANOVA analysis. All data analysis uses SPSS 18.0. Prism (the sixth version) is used for graphing. Attune N×T flow cytometer (Thermo Fisher Scientific Inc.) is used for analyzing tumor infiltrating lymphocytes. Data acquisition and analysis use Analyst Software 1.6.3 work station (AB sciex, Ontario, Canada). For MOLM-13 systemic model, the death date of the last mouse is used for analyzing the median total survival and generating the Kaplan-Meier curve. Logarithmic rank test and Bonferroni multiple test are used for comparing the survival curves of different treatment groups. […]
# For systemic AML model, the six- to eight-week-old female NOD SCID mice are pretreated with cyclophosphamide (150 mg/kg, intraperitoneally) continuously for two days. […] In the treatment process and after the treatment is completed, the mice are monitored for the occurrence of hind leg paresis (HLP) or the abdominal swelling caused by disease progression, and a body weight loss >20%.
# A systemic MOLM-13 mouse xenograft model is established, and the anti-leukemia effect of compound 2 following the administration regimen of 80 mg/kg dosage, orally (po), and once every two days (q2d) is evaluated in the model (corresponding to the number 57 regimen in table 7). […]
# [2] = system: dimethylbenzanthracene-induced rat myelodysplastic syndrome (MDS); experiment: Dimethylbenzanthracene-induced rat myelodysplastic syndrome (MDS) model; assay type: in vivo, SD rat; conditions: 10 mg/kg or 30 mg/kg, p.o., q2d×21 d
# Method: Multiple human-derived rat MDS model is used for evaluating the in vivo anti-tumor effect of compound 2 alone.
# The rat myelodysplastic syndrome (MDS) model is constructed using a chemical mutagenic agent dimethylbenzanthracene (DMBA). in the rat MDS model, the changes of myelogram and hemogram are similar to that of human myelodysplastic syndromes, and it is confirmed that it can be used for the anti-MDS effect study of drugs. DMBA is administered at 50 mg/kg, i.v. Following the once per week regimen for 4 weeks totally to establish the rat MDS model. One week after the end of DMBA administration (day 28), peripheral blood is collected from the caudal vein for routine blood test to determine whether the model is established successfully.
# The animals are randomly divided into groups according to the PLT level on day 28, wherein a vehicle control group (Vehicle), two dosage groups of compound 2 (10 mg/kg) and compound 2 (30 mg/kg) (corresponding to the number 23 regimen in table 3), and healthy control group (naive) are totally set, each group has 5 animals.
# Compound 2 is administered following 10 mg/kg or 30 mg/kg, p.o., q2d×21 d regimens. After the administration, the peripheral blood and bone marrow cells from each group of animals for routine blood analysis.
# MOLM-13 cells [3] = experiment: RNA-Seq analysis of treated MOLM-13 cells; assay type: cell-based, human; conditions: 24 hours
# MOLM-13 cells [4] = experiment: Expression of proteins in treated MOLM-13 cells; assay type: cell-based, human; conditions: compound 2 40 nM, RG-7388 40 nM, DEC 100 nM, AZA 3 μM, 48 hours
# From the text: Therefore, we evaluate the protein changes involving these identified signaling pathways. […] DEC and AZA are low methylation drugs inducing low DNA methylation in cells by inhibiting the function of methyltransferase I (DNMT1). Many studies indicate that DNMT1 forms a complex with UHRF1 and HDAC1 proteins in tumor cells, which binds and inhibits the expression of various […] (such as P16INK4A, P14ARF and P21) promoters, and promotes tumor growth. Cytarabine is a pyrimidine nucleoside analogue, which induces DNA damage, further activates ATM/ATR-P53-P21 signal cascades, inhibits DNA synthesis in cells and interferes with cell proliferation.
# Based on above evidences, we further detect the regulating effect of treatment with compound 2 in combination with low methylation drugs DEC and AZA or drug Ara-C on P53, demethylation marker protein DNMT1 and common target protein P21, and the expression of apoptosis marker protein, lytic PARP-1. […] RG-7388 is introduced as the comparison of present experiment. […] DNA damage further activates P53 and P21.
# B-actin is used for confirming that the loaded proteins are the same. […] Its results represent three independent results.
# [5] = system: human A375 cutaneous melanoma xenograft tumor; experiment: Subcutaneous A375 cutaneous melanoma xenograft model; assay type: in vivo, BALB/c Nude mice; conditions: 5 animals per group
# From the text: The subcutaneous xenograft tumor model of human tumor immuno-deficient mice is established by the cell inoculation method (reference can be made to Gould S E et al., Translational value of mouse models in oncology drug development, Nature medicine, 2015 21, 431-439, and Souers A J et al., ABT-199, a potent and selective BCL-2 inhibitor, achieves antitumor activity while sparing platelets, Nature medicine, 2012 19.202-208): tumor cells at logarithmic phase are collected, then are resuspended in 1×PBS after being counted, the concentration of the cell suspension is adjusted to 2.5-5×10^7/mL. Tumor cells are subcutaneously inoculated to right-side back of the immuno-deficient mice using a 1 mL syringe (4th needle) at 5-10×10^6/0.2 mL/mouse (experimental animals are purchased from Beijing Vital River Laboratory Animal Technology Co., Ltd. SCXK (Beijing) 2016-0006). […]
# The tumor diameter is measured twice using a vernier caliper each week. […] In the computational formula, V1 is the tumor volume when being grouped and administered, and Vt is the tumor volume when being measured at a certain day after the administration. […]
structure (smiles),measurement,setting,value
CCN1[C@@H](C(=O)NC23CCC(C(=O)O)(CC2)CC3)[C@H](c2cccc(Cl)c2F)[C@]2(C(=O)Nc3cc(Cl)ccc32)C12CCCCC2 [Compound 2],single agent anti-proliferative activity,NCI-H226,potent anti-proliferative activity
same,single agent anti-proliferative activity,NCI-H292,potent anti-proliferative activity
same,percentage of S phase cells,MOLM-13,obviously reduce the percentage of S phase cells
same,percentage of S phase cells,OCI-AML-3,obviously reduce the percentage of S phase cells
same,percentage of S phase cells,MV-4-11,obviously reduce the percentage of S phase cells
same,survival of MOLM-13 systemic AML xenograft mice,[1],significantly prolongs the survival
same,"PLT, WBCB and RBC levels of the peripheral blood of MDS rats",[2],no obvious effect
same,expression of p53 target / p53 signaling pathway genes (RNA-Seq),MOLM-13 cells [3],significant up-regulation of p53 target genes
same,expression of P53 and P21 proteins,MOLM-13 cells [4],accumulations of P53 and P21
same,mRECIST,[5],5/5 PD
